The test addresses Histone deacetylase 3 (Homo sapiens, UniProt O15379). The test is described as follows: Inhibition of C-terminal His-tagged full length human recombinant HDAC3 co-expressed with NcoR2 in baculovirus expression system using fluorogenic acetylated peptide as substrate preincubated with enzyme for 10 mins prior to substrate addition measured after 60 mins by fluorescence analysis.

By UniProt entry, the sequences of proteins in these tests, tags left out. Where a name states a change or a piece, a line headed by the entry shows the natural chain unless it says otherwise.
UniProt O15379: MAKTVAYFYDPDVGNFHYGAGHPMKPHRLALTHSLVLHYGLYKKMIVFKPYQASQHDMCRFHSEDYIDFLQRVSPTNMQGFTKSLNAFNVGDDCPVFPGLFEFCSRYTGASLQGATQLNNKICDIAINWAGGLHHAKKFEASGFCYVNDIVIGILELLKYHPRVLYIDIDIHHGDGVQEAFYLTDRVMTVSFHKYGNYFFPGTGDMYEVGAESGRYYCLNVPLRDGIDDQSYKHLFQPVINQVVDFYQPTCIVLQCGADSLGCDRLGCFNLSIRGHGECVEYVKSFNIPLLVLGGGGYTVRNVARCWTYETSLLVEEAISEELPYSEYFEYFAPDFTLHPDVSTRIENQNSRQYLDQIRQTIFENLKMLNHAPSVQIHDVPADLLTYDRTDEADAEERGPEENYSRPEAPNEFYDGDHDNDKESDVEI

This is an account of results in ChEMBL document CHEMBL2321647, “Biological evaluation of new largazole analogues: alteration of macrocyclic scaffold with click chemistry” (ACS Med Chem Lett, 2013).

As for `CCCCCCCC(=O)SCC/C=C/[C@@H]1CC(=O)NCc2nc(cs2)C2=N[C@@](C)(CS2)C(=O)N[C@@H](C(C)C)C(=O)O1` [LARGAZOLE], the IC50 amounted to 604 nM.
